{"source": "patent US20070160663A1", "about": "“Single unit pharmaceutical composition comprising a mixture of fenofibrate and a modified release form of a homocysteine reducing agent” (GALEPHAR PHARMACEUTICAL RESEARCH, INC., priority 2003, published 2007)", "origin": "cited, not measured here", "test_system": "total plasma homocysteine", "note": "At least one compound was matched to its structure with a doubt left."}
{"smiles": "CC(C)OC(=O)C(C)(C)Oc1ccc(C(=O)c2ccc(Cl)cc2)cc1", "note": "[Fenofibrate, p-(4-chlorobenzoyl)-phenoxy isobutyrate isopropyl ester]", "values": [{"measurement": "fed total homocysteine levels", "setting": "6 hours post prandial load, on fenofibrate, increase from 11.6 μmol/L", "value": 17.1, "unit": "µmol/L"}, {"measurement": "triglyceride rich protein parameters", "setting": "compared with placebo", "value": "marked decrease"}, {"measurement": "increase in fasting total homocysteine", "setting": "from 10.3 to 14.4 μmol/L", "value": 40, "unit": "%"}, {"measurement": "fasting total homocysteine", "setting": "on fenofibrate, increase from 10.3 μmol/L", "value": 14.4, "unit": "µmol/L"}]}
